Fewer than 10 of roughly 6,900 compounds were called active. The call rests on the fitted dose curve; in most records, active means well fitted curve in the direction sought with a large enough effect; inconclusive means small, poorly fitted or top-dose-only effect, or another doubt; inactive means no such curve, though single readings can be large or run the other way. The list shows a part of the results.
Molecular target: Metallo-beta-lactamase type 2 (Klebsiella pneumoniae) (UniProt C7C422)
Experiment: qHTS to identify inhibitors of the New Delhi Metallo-beta-lactamase (NDM): primary screen against the NCATS Gemini Collection; further: % of control where 0% means no effect
Conditions: NDM-1 enzyme, meropenem hydrolysis, absorbance 300 nm; at 38.4 µM (top of the series) unless noted
Procedure, shortened: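 NDM-1 at 2 nM final in 50 mM HEPES pH 7.0, 1 uM ZnSO4, 0.01% Tween20, preincubated >30 min with compound. Meropenem 50 uM final added; absorbance at 300 nm after 30 min.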

By UniProt entry, the sequences of proteins in these tests, tags left out. Where a name states a change or a piece, a line headed by the entry shows the natural chain unless it says otherwise.
UniProt C7C422: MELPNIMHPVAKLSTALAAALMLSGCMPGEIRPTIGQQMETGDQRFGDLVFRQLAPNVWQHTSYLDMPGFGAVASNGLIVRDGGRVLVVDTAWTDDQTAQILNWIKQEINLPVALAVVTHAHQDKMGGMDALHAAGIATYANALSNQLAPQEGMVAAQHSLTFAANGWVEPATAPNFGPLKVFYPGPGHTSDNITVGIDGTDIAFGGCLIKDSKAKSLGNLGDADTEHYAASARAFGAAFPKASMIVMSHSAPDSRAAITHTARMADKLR

Activity % (negative = inhibition), inactive:
O=C1NC(=NC2CCCC2)C2(CCN(Cc3cccnc3)CC2)N1c1cc(F)cc(F)c1 -2.39%, Cc1cc2ncc(C(=O)N3CCOCC3)cn2n1 3.02% [at 57.5 µM], Cc1cc(C#N)c(-c2ccccc2C(=O)N(C(C)C)C(C)C)nc1C 7.78%, CCCN(C)c1nccnc1OC1CCN(C(=O)c2cccc(OC)c2OC)C1 (stereo unspecified) 4.18%, Clc1cc(NCc2ccccn2)n2nccc2n1 8.98% [at 57.5 µM], O=C1N[C@H](CC(=O)N2CCc3ccccc3C2)C(=O)Nc2ccccc21 0.372%, O=C(NCc1ccccc1)[C@@H]1Cc2nc[nH]c2CN1Cc1cccc(OC(F)(F)F)c1 28.9% [at 57.5 µM], COCCN1C(=O)CC[C@]2(C(=O)N3CCCCCC3)CCCC[C@@H]12 4.02%, COc1ccc2c(c1)OCC(CNC(=O)c1scc3c1OCCO3)C2 (stereo unspecified) 0.535%, CNC(=O)[C@@H]1CN(S(=O)(=O)c2cccnc2)C[C@H]1C1CCN(C)CC1 -6.18%, CNC(=O)c1cc(C2CC2)nc2onc(C3CCN(C(=O)C4CCCCC4)CC3)c12 7.44%, CCCC(C)N1CC2(CCN(C(=O)c3ccc(C(C)=O)s3)CC2)OC1=O (stereo unspecified) 6.11%, Cc1ccc(CN2CCN(c3ncnc4onc(C)c34)CC2CCO)cc1 (stereo unspecified) 8.04%, Cc1cc(C)cc(-c2ccc(CN3CCCC(N[S+](C)(=O)[O-])C3)cc2)c1 (stereo unspecified) -7.62%, O[C@@H]1C[C@@H](c2nc(Cc3ccc(F)cc3Cl)no2)N(Cc2ccc(OC(F)(F)F)cc2)C1 10.6%, CCCn1cnc2c1CN(C(=O)c1ccc(F)cc1)[C@H](C(=O)OC)C2 1.92% [at 57.5 µM], CCC(=O)N1CCc2ccc(C(=O)NC3CCCCC3)cc21 -3.89%, CC(=O)N1CCN(C(=O)c2nc(N)nc3c2CCCC3)CC(O)C1 (stereo unspecified) 36%, Cc1cccc(O[C@H]2COCCN(c3nc4ccccc4s3)C2)n1 -0.272% [at 57.5 µM], O=C(O)CCc1nc(C2CCOCC2)n[nH]1 -8.02%, Cc1cnccc1NCCn1ccnc1-c1cc2n(n1)CCCNC2 5.67%, O[C@H]1[C@H](NCc2ccc(F)cc2)[C@H]2CO[C@H](O2)[C@@H]1N1CCC(Cc2ccccc2)CC1 -1.32% [at 57.5 µM], O=C(NCc1ccnc2[nH]ccc12)c1cc(F)ccc1Br 5.26%, CC(C)c1nc2c(c(-c3ccc(O)cc3)n1)CCN(C(=O)C1CCCC1)CC2 3.06%, Cc1ncc(CN2CCCC2C(=O)Nc2ccc(-c3cccc(F)c3)cc2)[nH]1 (stereo unspecified) 5.35%, NCCC(=O)N1CCC2(CC1)CN(C(=O)c1ccc(Cl)cc1)CCO2 3.42%, O=C1NC(=NC2CCCCC2)C2(CCN(CC3CCCCC3)C2)N1c1cccnc1 (stereo unspecified) 6.7%, CC(C)CN1C(=O)CCc2cc(NC(=O)C3CCC3)ccc21 2.56%, O=C(N[C@@H]1CN(C(=O)c2ccccn2)CC[C@@H]1CO)C1CC1 4.03%, COc1ccc(OC)c(CNC(=O)C2(CCO)CC23CCOCC3)c1 (stereo unspecified) -0.329%, COc1cccc(-c2ccccc2NC(=O)C2CCN(Cc3ccccc3F)CC2)c1 -2.34%, CN(C)c1cccc(-c2cnc(Nc3ccc(N4CCOCC4)cc3)c3c2CCO3)c1 18.7% [at 57.5 µM], COc1ccc(CC(=O)N(C)C2CCc3ccccc3C2)cc1 (stereo unspecified) 5.6% [at 57.5 µM], COc1ccc(-c2nc(C3CC3)nc3c2CCN(CCC(C)C)CC3)cc1 49.5%, CC(C)OC(=O)N1CCC(COc2ccc3c(cnn3CCC(=O)O)c2)CC1 5.9% [at 57.5 µM], CCc1nc2c(NC(=O)c3ccc(F)c(Cl)c3)cccn2n1 8.21%, CN1CCCN(CC(=O)N2CCCC(c3ccc(C(=O)O)cc3)C2)CC1 (stereo unspecified) -0.8%, O=C1NC2(CCN(Cc3ccccc3)C2)Oc2ccccc21 (stereo unspecified) 6.56% [at 57.5 µM], CN(CCc1ccccc1)[C@@H]1[C@H](O)[C@H](CO)O[C@@H]1CNS(=O)(=O)c1cccs1 14.1%, O[C@H]1[C@H](NCc2cnc3ccccc3c2)[C@H]2CO[C@H](O2)[C@@H]1N1CCCCC1 0.493% [at 57.5 µM], O=C(CCc1cc2n(n1)CCCNC2)Nc1ccc2c(c1)OCCO2 63.7%, Cc1cnn(CCC(=O)NC2CCc3nnc(C)n3CC2)c1 (stereo unspecified) 35.5%, O=C(c1cccnc1)N1CCC2(CC1)C(=O)NN=C2c1cccnc1 8.82%, Cc1nc(CN2CCN(c3cc(C4CC(O)C4)ncn3)CC2)cs1 (stereo unspecified) 4.21%, O=C1COCC2(CN(CCC(F)(F)F)C2)CN1Cc1cccc(OC(F)(F)F)c1 1.33% [at 57.5 µM], Fc1ccc2nc(CO[C@H]3CN(C4CCC4)C[C@H]3F)[nH]c2c1 15.9% [at 57.5 µM], O=C(NCC1CC1)C1CCCN(C2CCN(Cc3ccncc3)CC2)C1 (stereo unspecified) 3%, O=C(Cc1ccc(F)c(F)c1F)N[C@@H]1CCNC[C@H]1O -3.13%, CC(C)NC(=O)C1COC2(CCCCC2)N1C(=O)Cc1ccccc1 (stereo unspecified) 3.61%, Cc1cc(C(=O)N2C[C@@H](COCC3CC3)[C@H](c3ccccn3)C2)n[nH]1 -0.139%, Cc1nc(-c2ccc(F)cc2)n(Cc2ccc(F)c(F)c2)c(=O)c1CCO -2.72%, O=C(c1ccccc1)N1CCC2(CC1)C(=O)NN=C2c1ccccn1 7.88% [at 57.5 µM], Cc1ccn(CC(=O)N2CCCn3ccnc3C2c2cnn(C)c2)n1 (stereo unspecified) 1.14%, Cc1cccc(C(=O)N2CCC(c3noc(CO)n3)C2)c1 (stereo unspecified) 10.2%, Cc1cnn(-c2cc(N3CCC(n4cc(C5CCCC5)nn4)CC3)ncn2)c1 4.64%, O=C1Nc2ccccc2C2(CCN(C(=O)c3cccnc3)C2)O1 (stereo unspecified) 3.28% [at 57.5 µM], Cc1cc(C)n(CCc2c(-c3ccccc3)ncn2C(C)CCCC(C)(C)O)n1 (stereo unspecified) -2.56%, CC(c1cccs1)N(C)Cc1ccc(C(F)(F)F)cc1 (stereo unspecified) -0.156% [at 57.5 µM], CCc1ccc(CN2CCN(c3ccc(C(N)=O)cn3)CC2)nc1 17.8%, O=C(CCNC(=O)c1cnccn1)NC1CCCc2c1[nH]c1ccc(Cl)cc21 (stereo unspecified) 12.7%, COc1ccc2cc(C3CN(C(=O)CNC(=O)C(C)C)CCO3)ccc2c1 (stereo unspecified) -1.68%, COc1cc(C)cc(C(C(=O)O)N2CCN(c3cnccn3)CC2)c1OC (stereo unspecified) -4.3%, O=S(=O)(N[C@H]1CO[C@H]2[C@@H]1OC[C@H]2O)c1ccc(Cl)cc1 -1.35% [at 57.5 µM], CN(C)C[C@@H]1CN(C2CCOCC2)C[C@H]1NC(=O)C1CC=CCC1 (stereo partly specified) -0.995%, Cc1[nH]c2ccccc2c1CC(=O)NCc1ccccc1-n1cncn1 7.08%, O=C(c1cccc(F)c1F)N1CCCC2(CCNCC2)CC1 -2.52%, Cc1cnc(C(=O)NC2CC(c3nnc(CO)n3C3CC3)C2)[nH]1 (stereo unspecified) 0.0394%, CN1CCN(c2nc3c(c(=O)[nH]2)CCN(Cc2ccc4[nH]ccc4c2)CC3)CC1 2.32%, COc1ccc(C(=O)N[C@@H]2CCC[C@@H]2C(=O)N2CCSCC2)cc1 -0.0788%, Cc1nn(-c2ccccc2)c2c1C(C1CC1)N(C1CCN([S+](=O)([O-])c3ccccc3)C1)C2=O (stereo unspecified) 15%, COCCOC1CCN(C(=O)NCc2ccc(C)cc2)CC1 -0.0357%, CNC(=O)NCCc1ncc(C)n1C1CCCCCCC1 -11.8%, Cc1ccc(OCC(=O)N2CCCC(CN3CCCC3)CC2)cc1 (stereo unspecified) 7.6%, CN(C)C(=O)N1CCCC(C(=O)NCCc2nc(-c3ccccn3)no2)C1 (stereo unspecified) -3.07%, CS(=O)(=O)N1C[C@H]2CCN(C(=O)Cc3ccccc3Cl)C[C@H]21 1.14%, O=C(CC1C(=O)NCCN1CC(c1ccccc1)c1ccccc1)NCc1ccco1 (stereo unspecified) 15.6%, O=C(O)c1ccc(CN2C[C@@H]3OCC(=O)N(c4ccccc4)[C@@H]3C2)cc1 -0.309% [at 57.5 µM], O=C(NCC1CN(C(=O)Cc2cccc(Cl)c2)CC12CN(c1ccccc1)C2)C1CC1 (stereo unspecified) -2.23% [at 57.5 µM], CCC(=O)N1Cc2ccccc2OC2(CCN(C(C)C)CC2)C1 -9.64%, CC(C)Cc1noc(CN(C)C(=O)CC2C(=O)NCCN2CC(C)C)n1 (stereo unspecified) 0.659%, Cc1cccc(OCCc2noc(C3CCCN3)n2)c1 (stereo unspecified) 5.62%, O=C(c1ccco1)N1CCCC1c1nc(C2CCOCC2)no1 (stereo unspecified) 4.67%, CC(=O)Nc1ccc(Cl)c(C(=O)N(C)Cc2sccc2C)c1 8.73%, C[C@@H](c1ccccc1)N1C(=O)[C@@H]2CN(C(=O)CC3(CC(=O)O)CCCC3)CCN2C1=O 7.3% [at 57.5 µM], O=C(c1cccnc1)N1C[C@@H]2OCC(=O)N(c3ccccc3)[C@@H]2C1 0.667% [at 57.5 µM], CC(CCC(=O)N1CCn2nc(Cc3ccccc3)cc2C1)N1CCCC1 (stereo unspecified) 0.806%

— PubChem BioAssay AID1794845 (National Center for Advancing Translational Sciences (NCATS), 2023)
